Results are given in words; binding and its absence hold for the method and conditions named. Binding seen in cells or lysates may run through a third protein. Some results given as binding are weak or reduced against the parent protein; the word gives no strength.
Key:
V5-tagged Nrf1a = V5-tagged Nrf1a (UniProt Q14494); assay: co-IP; cells transfected with increasing amounts of TCF11-V5 or Nrf1a-V5 (0, 2, 4 ug); lysis in 2% SDS buffer, diluted 5-fold; anti-V5 IP overnight at 4 C, protein-G Sepharose, RIPA washes; blot with anti-USP7
V5-tagged TCF11 = V5-tagged TCF11 (UniProt Q14494); assay: as above

Sequences of proteins named here, by UniProt entry; tags and fusion partners are left off. A change or cut given only in a name is not applied to a line headed by its entry. A line that says so, or that is headed by a name, gives the form on record, which may keep a tag or linker.
UniProt Q14494: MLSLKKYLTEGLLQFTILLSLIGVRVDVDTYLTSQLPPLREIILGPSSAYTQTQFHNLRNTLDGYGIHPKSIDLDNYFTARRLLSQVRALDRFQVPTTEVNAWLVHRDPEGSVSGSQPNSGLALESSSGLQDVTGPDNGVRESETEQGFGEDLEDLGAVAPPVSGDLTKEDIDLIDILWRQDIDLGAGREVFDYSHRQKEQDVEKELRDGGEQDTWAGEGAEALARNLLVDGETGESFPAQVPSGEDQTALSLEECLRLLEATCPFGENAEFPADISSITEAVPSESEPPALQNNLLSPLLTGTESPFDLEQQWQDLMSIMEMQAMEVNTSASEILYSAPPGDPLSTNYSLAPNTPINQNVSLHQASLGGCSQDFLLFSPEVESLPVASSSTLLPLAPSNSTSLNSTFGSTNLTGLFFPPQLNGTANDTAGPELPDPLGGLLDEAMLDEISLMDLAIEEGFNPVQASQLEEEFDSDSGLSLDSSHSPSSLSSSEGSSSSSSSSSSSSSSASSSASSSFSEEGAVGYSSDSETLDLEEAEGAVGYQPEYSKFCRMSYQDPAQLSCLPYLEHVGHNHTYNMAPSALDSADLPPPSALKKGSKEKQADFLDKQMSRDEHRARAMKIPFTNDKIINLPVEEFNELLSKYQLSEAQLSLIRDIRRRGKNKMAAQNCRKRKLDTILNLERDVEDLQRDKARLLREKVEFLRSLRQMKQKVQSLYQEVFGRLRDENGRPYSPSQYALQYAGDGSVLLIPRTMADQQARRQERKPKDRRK
V5-tagged Nrf1a (Q14494, form named): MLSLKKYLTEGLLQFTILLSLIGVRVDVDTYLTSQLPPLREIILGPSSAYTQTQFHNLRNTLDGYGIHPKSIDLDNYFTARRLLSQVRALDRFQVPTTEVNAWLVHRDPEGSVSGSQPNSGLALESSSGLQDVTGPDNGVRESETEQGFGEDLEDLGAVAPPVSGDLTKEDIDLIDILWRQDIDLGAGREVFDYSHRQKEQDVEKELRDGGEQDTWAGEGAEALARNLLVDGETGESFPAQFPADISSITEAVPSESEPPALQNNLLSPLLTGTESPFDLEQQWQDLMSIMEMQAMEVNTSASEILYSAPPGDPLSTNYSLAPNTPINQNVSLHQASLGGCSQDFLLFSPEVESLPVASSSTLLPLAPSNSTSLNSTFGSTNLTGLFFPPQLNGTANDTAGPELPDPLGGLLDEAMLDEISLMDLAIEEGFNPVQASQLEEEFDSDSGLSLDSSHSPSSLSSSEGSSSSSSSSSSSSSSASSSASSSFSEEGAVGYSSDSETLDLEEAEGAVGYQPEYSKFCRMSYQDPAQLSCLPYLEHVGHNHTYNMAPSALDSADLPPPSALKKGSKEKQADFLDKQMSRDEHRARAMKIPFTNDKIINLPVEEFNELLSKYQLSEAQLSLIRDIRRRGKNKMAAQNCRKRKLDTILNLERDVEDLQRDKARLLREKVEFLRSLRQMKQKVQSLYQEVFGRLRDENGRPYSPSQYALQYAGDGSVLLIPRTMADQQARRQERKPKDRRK
UniProt Q93009: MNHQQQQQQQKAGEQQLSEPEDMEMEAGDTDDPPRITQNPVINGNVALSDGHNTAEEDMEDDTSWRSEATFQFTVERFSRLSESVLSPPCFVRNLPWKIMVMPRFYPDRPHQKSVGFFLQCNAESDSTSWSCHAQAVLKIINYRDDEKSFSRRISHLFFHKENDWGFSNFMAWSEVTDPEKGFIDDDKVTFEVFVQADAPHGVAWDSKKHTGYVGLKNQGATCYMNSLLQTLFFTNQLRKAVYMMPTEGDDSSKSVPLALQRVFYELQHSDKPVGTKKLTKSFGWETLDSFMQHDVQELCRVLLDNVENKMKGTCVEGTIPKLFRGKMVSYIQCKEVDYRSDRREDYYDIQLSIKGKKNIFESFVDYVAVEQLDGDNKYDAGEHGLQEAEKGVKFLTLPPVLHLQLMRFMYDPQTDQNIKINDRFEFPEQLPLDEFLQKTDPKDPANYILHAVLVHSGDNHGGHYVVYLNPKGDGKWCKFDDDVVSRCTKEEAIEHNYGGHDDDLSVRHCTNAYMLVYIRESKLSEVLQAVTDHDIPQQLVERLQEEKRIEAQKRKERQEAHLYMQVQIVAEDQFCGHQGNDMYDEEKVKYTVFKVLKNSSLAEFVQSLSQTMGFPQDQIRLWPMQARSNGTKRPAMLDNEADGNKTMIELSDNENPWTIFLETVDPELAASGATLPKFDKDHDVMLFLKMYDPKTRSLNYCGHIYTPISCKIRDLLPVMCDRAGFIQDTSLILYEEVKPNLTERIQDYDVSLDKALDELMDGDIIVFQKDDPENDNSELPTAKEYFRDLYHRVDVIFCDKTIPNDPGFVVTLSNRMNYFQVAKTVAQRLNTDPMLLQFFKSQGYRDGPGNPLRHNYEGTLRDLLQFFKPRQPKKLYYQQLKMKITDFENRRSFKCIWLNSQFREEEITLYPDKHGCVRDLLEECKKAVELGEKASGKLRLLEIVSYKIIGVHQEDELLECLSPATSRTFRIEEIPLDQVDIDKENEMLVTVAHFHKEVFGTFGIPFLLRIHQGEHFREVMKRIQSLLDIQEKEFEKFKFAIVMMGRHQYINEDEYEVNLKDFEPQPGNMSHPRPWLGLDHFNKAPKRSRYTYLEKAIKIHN

- binding (V5-tagged Nrf1a): binds
- binding (V5-tagged TCF11): binds
Substance: endogenous USP7 (ubiquitin specific protease 7) (from UniProt Q93009 1-1102) (enzyme)
